PubChem BioAssay AID504804, Drosophila RNAi Screening Center, 2011

Assay: 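Fly genes whose loss lessens doxorubicin-driven cell death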 (primary screen)
Cell system: Drosophila Kc cells
Knock-down reagent: long dsRNA against Drosophila genes, 0.5 µg dsRNA per well
Timing: 96 h (48 h knock-down, then 48 h drug)
Challenge: doxorubicin 5 µg/ml for 48 h, added 48 h after dsRNA
Detection: 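Luminescent ATP counts per replicate, not normalised, reflecting viable cells after 48 h dsRNA knock-down followed by 48 h of 5 µg/ml doxorubicin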
Reading the numbers: raw ATP luminescence: higher = more viable cells, protection from doxorubicin
Call rule: 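z-score of 2 or more over plate mean in both duplicates, retained only when retests and separate dsRNAs confirm the protection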
The screen tested about 19,000 reagents; this is a random part of those that have a named target and a result. Over the whole deposit, 47 (0.25%) were called active. 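Signals are raw, not normalised; exact z-scores behind calls not deposited; actives needed confirmation, so some wells reaching 2 SD are inactive.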

With Orct2 (Organic cation transporter 2) [DRSC14613], what does the deposit list?
raw ATP luminescence, replicate 1: 52320; raw ATP luminescence, replicate 2: 54580; outcome: inactive

For Mst84Dd (Male-specific RNA 84Dd) [DRSC12600], how do the results read?
raw ATP luminescence, replicate 1: 57400; raw ATP luminescence, replicate 2: 57200; outcome: inactive

How did the screen score CG6325 [DRSC16020]?
raw ATP luminescence, replicate 1: 41097; raw ATP luminescence, replicate 2: 22103; outcome: inactive

For Su(var)3-7 (Suppressor of variegation 3-7) [DRSC16872], what does the deposit list?
raw ATP luminescence, replicate 1: 74780; raw ATP luminescence, replicate 2: 63650; outcome: inactive

For CG1943 [DRSC12576], what was measured?
raw ATP luminescence, replicate 1: 60633; raw ATP luminescence, replicate 2: 55977; outcome: inactive

For CG13958 (retired record) [DRSC02300], what does the deposit list?
raw ATP luminescence, replicate 1: 42740; raw ATP luminescence, replicate 2: 43167; outcome: inactive

For Dis3l2 (Dis3 like 3'-5' exoribonuclease 2) [DRSC08496], how do the results read?
raw ATP luminescence, replicate 1: 46130; raw ATP luminescence, replicate 2: 47803; outcome: inactive

With Send2 (Spermathecal endopeptidase 2) [DRSC01906], what was measured?
raw ATP luminescence, replicate 1: 75817; raw ATP luminescence, replicate 2: 81087; outcome: inactive

What is on record for CG9330 [DRSC11066]?
raw ATP luminescence, replicate 1: 74853; raw ATP luminescence, replicate 2: 80293; outcome: inactive

Which result is listed for Cyp4d1 (Cytochrome P450 4d1) [DRSC17694]?
raw ATP luminescence, replicate 1: 2.28e5; raw ATP luminescence, replicate 2: 2.28e5; outcome: inactive

What did the screen give for Cyp4d1 (Cytochrome P450 4d1) [DRSC18456]?
raw ATP luminescence, replicate 1: 72700; raw ATP luminescence, replicate 2: 72940; outcome: inactive

For CG3640 [DRSC04399], how do the results read?
raw ATP luminescence, replicate 1: 45710; raw ATP luminescence, replicate 2: 54227; outcome: inactive

How did the screen score Sox100B [DRSC15090]?
raw ATP luminescence, replicate 1: 36270; raw ATP luminescence, replicate 2: 31230; outcome: inactive

What did the screen give for Sox100B [DRSC16866]?
raw ATP luminescence, replicate 1: 44600; raw ATP luminescence, replicate 2: 29020; outcome: inactive

Which result is listed for Cpr60D (Cuticular protein 60D) [DRSC04492]?
raw ATP luminescence, replicate 1: 66110; raw ATP luminescence, replicate 2: 71413; outcome: inactive

What is on record for CG9164 [DRSC19087]?
raw ATP luminescence, replicate 1: 1.87e5; raw ATP luminescence, replicate 2: 1.71e5; outcome: inactive

How did the screen score CG11980 [DRSC14456]?
raw ATP luminescence, replicate 1: 90003; raw ATP luminescence, replicate 2: 29937; outcome: inactive

How did the screen score Hers (Histone gene-specific Epigenetic Repressor in late S phase) [DRSC19676]?
raw ATP luminescence, replicate 1: 3.37e5; raw ATP luminescence, replicate 2: 3.33e5; outcome: inactive

Which result is listed for CG9451 [DRSC11074]?
raw ATP luminescence, replicate 1: 71453; raw ATP luminescence, replicate 2: 70340; outcome: inactive

Which result is listed for spartin [DRSC12187]?
raw ATP luminescence, replicate 1: 64443; raw ATP luminescence, replicate 2: 49623; outcome: inactive

With CG9822 [DRSC04568], what was measured?
raw ATP luminescence, replicate 1: 64840; raw ATP luminescence, replicate 2: 50610; outcome: inactive

How did the screen score Ripalpha (RPA-interacting protein alpha) [DRSC02657]?
raw ATP luminescence, replicate 1: 41193; raw ATP luminescence, replicate 2: 54627; outcome: inactive

For CG11060 [DRSC06029], what does the deposit list?
raw ATP luminescence, replicate 1: 68533; raw ATP luminescence, replicate 2: 52717; outcome: inactive

What did the screen give for Ir92a (Ionotropic receptor 92a) [DRSC15111]?
raw ATP luminescence, replicate 1: 45200; raw ATP luminescence, replicate 2: 46300; outcome: inactive

Which result is listed for sp3 (spermathreecae) [DRSC16354]?
raw ATP luminescence, replicate 1: 51270; raw ATP luminescence, replicate 2: 53720; outcome: inactive

With osa [DRSC17022], what does the deposit list?
raw ATP luminescence, replicate 1: 42497; raw ATP luminescence, replicate 2: 30217; outcome: inactive

For CG32280 [DRSC08024], how do the results read?
raw ATP luminescence, replicate 1: 1.25e5; raw ATP luminescence, replicate 2: 1.51e5; outcome: inactive

With CG3091 [DRSC18274], what does the deposit list?
raw ATP luminescence, replicate 1: 34840; raw ATP luminescence, replicate 2: 38920; outcome: inactive

Which result is listed for CG3502 [DRSC04381]?
raw ATP luminescence, replicate 1: 76307; raw ATP luminescence, replicate 2: 75907; outcome: inactive

For nub (nubbin) [DRSC01260], what does the deposit list?
raw ATP luminescence, replicate 1: 2.90e5; raw ATP luminescence, replicate 2: 2.28e5; outcome: inactive

What is on record for nub (nubbin) [DRSC02498]?
raw ATP luminescence, replicate 1: 64747; raw ATP luminescence, replicate 2: 74720; outcome: inactive

With nub (nubbin) [DRSC02499], how do the results read?
raw ATP luminescence, replicate 1: 55877; raw ATP luminescence, replicate 2: 57637; outcome: inactive

What did the screen give for nub (nubbin) [DRSC03583]?
raw ATP luminescence, replicate 1: 62557; raw ATP luminescence, replicate 2: 73873; outcome: inactive

For aft (adrift) [DRSC07576], how do the results read?
raw ATP luminescence, replicate 1: 64950; raw ATP luminescence, replicate 2: 58163; outcome: inactive

For ham (hamlet) [DRSC02070], what does the deposit list?
raw ATP luminescence, replicate 1: 44330; raw ATP luminescence, replicate 2: 41903; outcome: inactive

With ham (hamlet) [DRSC02512], how do the results read?
raw ATP luminescence, replicate 1: 63403; raw ATP luminescence, replicate 2: 58673; outcome: inactive

Which result is listed for ham (hamlet) [DRSC02513]?
raw ATP luminescence, replicate 1: 64630; raw ATP luminescence, replicate 2: 66900; outcome: inactive

2 entries already listed, sorted by “raw ATP luminescence, replicate 1”, low to high.
CG11980 [DRSC14456] — raw ATP luminescence, replicate 1: 90003; raw ATP luminescence, replicate 2: 29937; outcome: inactive
CG9164 [DRSC19087] — raw ATP luminescence, replicate 1: 1.87e5; raw ATP luminescence, replicate 2: 1.71e5; outcome: inactive
